PubChem BioAssay AID652272 | Drosophila RNAi Screening Center, 2013

Assay: 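Finding fly genes that regulate Hedgehog signal transduction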 (primary screen)
Cell system: Drosophila clone 8 (Cl8) cells
Reagent: long dsRNA against Drosophila genes
Measured: 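Firefly light from a Hedgehog-responsive ptc promoter reporter and Renilla reference light, both read on a plate reader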
Reading the numbers: firefly Hh reporter signal: higher = more ptc reporter light; Renilla reference signal: higher = more Renilla control light
Active means: 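Hit when the z-score averaged over two replicates is under -2 or over +3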
Calls: active = hit: reporter lowered or raised; inactive = not a hit
In all, the deposit lists about 21,000 reagents; shown is a random part of those that have a named target and a result. Over the whole deposit, 503 (2.4%) are marked active. 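Raw plate light values, not normalised; calls rest on replicate z-scores that were not deposited; hits include reporter decreases as well as increases.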 Entries without a mark were called inactive. The numbers tell different reagents against one gene apart. A plus sign joins genes that one reagent is predicted to hit. The record does not give: the amount of reagent, the time to read-out.

gene knocked down | dsRNA no. | firefly Hh reporter signal, replicate 1 | firefly Hh reporter signal, replicate 2 | firefly Hh reporter signal, replicate 3 | Renilla reference signal, replicate 1 | Renilla reference signal, replicate 2
fidipidine | 1 | 77787 | 43273 | – | 1827 | 3520
apolpp | 1 | 56997 | 90281 | – | 1269 | 2635
CG42296 | 1 | 79347 | 95869 | – | 1984 | 2400
Ldsdh1 | 1 | 1.19e5 | 3.66e5 | – | 4717 | 13511
TpnC41C | 1 | 77307 | 63859 | – | 1705 | 5888
CG30289 | 1 | 1.11e5 | 1.70e5 | – | 2801 | 7740
Ir7d | 1 | 76451 | 1.65e5 | – | 2308 | 7776
Syb | 1 | 77434 | 52864 | – | 2864 | 2181
Ilk | 1 | 4.63e5 | 1.05e5 | – | 4680 | 4680
Gtpx | 1 | 1.63e5 | 1.33e5 | – | 6964 | 5042
CG1143 | 1 | 52633 | 42439 | – | 1949 | 3869
CG32647 | 1 | 88131 | 2.08e5 | – | 2864 | 8498
CG32647 | 2 | 1.18e5 | 51076 | – | 6715 | 2357
erm | 1 | 1.50e5 | 1.02e5 | – | 5480 | 4240
Mdh2 | 1 | 5.90e5 | 73349 | – | 29872 | 1527
CG8665 | 1 | 1.04e5 | 74167 | – | 2368 | 5930
BuGZ | 1 | 82987 | 37344 | – | 4264 | 2170
BuGZ | 2 | 1.34e5 | 51101 | – | 3453 | 4952
HP1e | 1 | 78237 | 1.19e5 | – | 2320 | 2749
Mccc1 | 1 | 1.27e5 | 79354 | – | 3170 | 2489
CG42686 (retired record) | 1 | 23804 | 2.19e5 | – | 1062 | 13241
CG42686 (retired record) | 2 | 5.31e5 | 1.03e5 | – | 28584 | 3430
Ctr9 | 1 | 1.37e5 | 85831 | – | 4646 | 2818
CG34200 | 1 | 1.91e5 | 2.84e5 | – | 4317 | 12249
Pstk + CG14210 + Tim9b | 1 | 38457 (active) | 1.09e5 | – | 2165 | 9218
Bfc | 1 | 1.19e5 | 57888 | – | 3651 | 4657
Vm26Ab | 1 | 1.99e5 | 6.20e5 | 86054 | 4700 | 33745
Set | 1 | 1.09e5 | 82999 | – | 4209 | 2964
Synj | 1 | 81672 | 72800 | – | 3281 | 2886
Scp2 | 1 | 28675 | 2.33e5 | – | 4496 | 5140
Scp2 | 2 | 89628 | 1.05e5 | – | 2776 | 2876
rpr | 1 | 1.50e5 | – | – | 5328 | 4024
Polr2C | 1 | 60397 | 42320 | – | 2460 | 1472
Ugt35B1 | 1 | 1.05e5 | 76596 | – | 4163 | 3036
AdipoR | 1 | 1.17e5 | 88117 | – | 4633 | 3890
fru | 1 | 3.64e5 | 62423 | – | 20171 | 1997
fru | 2 | 2.32e5 | 1.24e6 | 2.13e5 | 928 | 54144
fru | 3 | 1.04e6 | 4.94e5 | 1.91e5 | 46940 | 4752
Mec2 | 1 | 1.10e5 | 78695 | – | 2584 | 1665
CG33689 | 1 | 2.42e5 | – | – | 5779 | –
Lsd-2 | 1 | 1.39e5 | 1.00e5 | – | 3059 | 2637
Nf-YA | 1 | 40029 | 16339 | 22167 | 3405 | 2025
CG33090 | 1 | 58192 | 67321 | – | 2548 | 2482
CG34188 | 1 | 1.41e5 | 2.90e5 | – | 8499 | 10264
Syx1A | 1 | 5.51e5 | 84260 | – | 29910 | 2624
Bre1 | 1 | 1.29e5 | 1.54e5 | – | 4147 | 5920
orb2 + CG43783 | 1 | 91472 | 1.02e5 | – | 4197 | 3904
orb2 + CG43783 | 2 | 48440 | 44192 | – | 4696 | 3797
orb2 + CG43783 | 3 | 1.35e5 | 78081 | – | 6192 | 3221
Pdp1 | 1 | 31617 | 49396 | – | 1040 | 2120
Pdp1 | 2 | 23932 | 40752 | – | 984 | 2838
Pdp1 | 3 | 57365 | 57685 | – | 7700 | 4555
CG11694 | 1 | 75108 | 91560 | – | 1449 | 3043
lncRNA:iab8 | 1 | 48378 | 2.82e5 | – | 10420 | 5649
CG17002 | 1 | 50499 | 38411 | – | 2768 | 1942
CG42361 | 1 | 83130 | 65111 | – | 1432 | 4579
Ccdc39 | 1 | 85920 | 1.14e5 | – | 2001 | 2922
